According to the supplement of paper PMC9233669:
Variants at the floor of the assay are shown more often than the library holds them.

Tests used:
[1] = test system: biotinyl-Val-oxazolone; test: self-aminoacylation, catalytic enhancement (BVO) (fold over background); higher = more active; k-Seq, kA / k0A0; sequences stand for … in GGGAAUGGAUCCACAUCUACGAAUUC…UUCACUGCAGACUUGACGAAGCUG
Method in brief: (§1)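 Mutagenized RNA pools (0.43 μM; 21-nt variable region) were treated with 2–1250 μM of each biotinyl-aminoacyl-oxazolone. Conditions were 50 μL HEPES/NaCl/KCl/MgCl2/CaCl2 buffer, 5% acetonitrile, pH 6.9–7.0, room temperature, 90 minutes. Catalytic enhancement, the median kA relative to the uncatalyzed rate, was derived from streptavidin capture, qPCR and Illumina sequencing.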

[2] = test system: biotinyl-Trp-oxazolone; test: self-aminoacylation, catalytic enhancement (BWO) (fold over background); higher = more active; k-Seq, kA / k0A0; sequences stand for … in GGGAAUGGAUCCACAUCUACGAAUUC…UUCACUGCAGACUUGACGAAGCUG
Method in brief: as §1

[3] = test system: biotinyl-Leu-oxazolone; test: self-aminoacylation, catalytic enhancement (BLO) (fold over background); higher = more active; k-Seq, kA / k0A0; sequences stand for … in GGGAAUGGAUCCACAUCUACGAAUUC…UUCACUGCAGACUUGACGAAGCUG
Method in brief: as §1

[4] = test system: biotinyl-Met-oxazolone; test: self-aminoacylation, catalytic enhancement (BMO) (fold over background); higher = more active; k-Seq, kA / k0A0; sequences stand for … in GGGAAUGGAUCCACAUCUACGAAUUC…UUCACUGCAGACUUGACGAAGCUG
Method in brief: as §1

[5] = test system: biotinyl-Phe-oxazolone; test: self-aminoacylation, catalytic enhancement (BFO) (fold over background); higher = more active; k-Seq, kA / k0A0; sequences stand for … in GGGAAUGGAUCCACAUCUACGAAUUC…UUCACUGCAGACUUGACGAAGCUG
Method in brief: as §1

[6] = test system: biotinyl-Ile-oxazolone; test: self-aminoacylation, catalytic enhancement (BIO) (fold over background); higher = more active; k-Seq, kA / k0A0; sequences stand for … in GGGAAUGGAUCCACAUCUACGAAUUC…UUCACUGCAGACUUGACGAAGCUG
Method in brief: as §1

| Sequence | self-aminoacylation [1] | self-aminoacylation [2] | self-aminoacylation [3] | self-aminoacylation [4] | self-aminoacylation [5] | self-aminoacylation [6] |
| --- | --- | --- | --- | --- | --- | --- |
| CCACACUUCAAGCUAUCGAUC [Fam1B.1 aminoacylation ribozyme variant] | 0.766 | 0.519 | 0.537 | 0.507 | 1.26 | 0.681 |
| CCAUACUUCAAGCAAUCGUUC [Fam1B.1 aminoacylation ribozyme variant] | 0.986 | 0.648 | 0.724 | 0.74 | 1.17 | 0.89 |
| GUUCACCUAGGUCAGCGGGUG [Fam2.2 aminoacylation ribozyme variant] | 3.23 | 4.42 | 4.21 | 4.02 | 26.1 | 2.92 |
| AUUACCCUGGUCAUCGAAUGA [Fam2.1 aminoacylation ribozyme variant] | 1.06 | 0.908 | 1.08 | 1.07 | 0.974 | 1 |
| CUACUUUAAACAAUCGUUCUG [Fam1A.1 aminoacylation ribozyme variant] | 0.698 | 0.469 | 0.612 | 0.571 | 0.59 | 0.644 |
| AAGUUUGCUAAUAGGCGCAAC [Fam3.1 aminoacylation ribozyme variant] | 0.997 | 1.39 | 1.27 | 1.32 | 1.19 | 1.15 |
| CUACAUCAAACAAUCGGUCUG [Fam1A.1 aminoacylation ribozyme variant] | 0.82 | 1.41 | 0.736 | 0.759 | 2.27 | 0.799 |
| UUUCACCUAGGUCAUCGGAUG [Fam2.2 aminoacylation ribozyme variant] | 1.36 | 1.12 | 0.998 | 0.898 | 0.842 | 1.1 |
| AUGUACCUAGGUCAUCGGGUG [Fam2.2 aminoacylation ribozyme variant] | 3.08 | 5.8 | 5.37 | 5.49 | 34 | 3.62 |
| CUACUUCAAACAUCCGGUCUG [Fam1A.1 aminoacylation ribozyme variant] | 1.07 | 0.795 | 1.37 | 1.16 | 1.62 | 1.23 |
| CUACUUCAAAUAAUCGAUCUG [Fam1A.1 aminoacylation ribozyme variant] | 0.592 | 0.839 | 0.495 | 0.534 | 1.94 | 0.669 |
| AAGUUUGUUAACAGUCGCAAG [Fam3.1 aminoacylation ribozyme variant] | 0.996 | 0.988 | 1.03 | 0.806 | 1.11 | 1.09 |
| AAGUUUGCUAAUAGUCGGAAA [Fam3.1 aminoacylation ribozyme variant] | 1.27 | 0.897 | 0.966 | 1.05 | 1.15 | 1.53 |
| CUACUUCUAACAAACGGUCUG [Fam1A.1 aminoacylation ribozyme variant] | 0.688 | 0.559 | 0.532 | 0.565 | 0.566 | 0.768 |
| AAUACCCUGGUCAUCGAGUCA [Fam2.1 aminoacylation ribozyme variant] | 0.673 | 0.305 | 0.5 | 0.534 | 0.749 | 0.607 |
| AAGUUUUCUAUUAGUCGCAAG [Fam3.1 aminoacylation ribozyme variant] | 1.52 | 2.07 | 1.82 | 1.89 | 2.22 | 1.79 |
| CCACACUUCAGGCAAGCGGUC [Fam1B.1 aminoacylation ribozyme variant] | 1.33 | 0.796 | 1.06 | 1.31 | 0.61 | 1.32 |
| CUACUUCAAAGAAUCGGACUG [Fam1A.1 aminoacylation ribozyme variant] | 0.808 | 0.932 | 0.818 | 0.91 | 1.29 | 0.992 |
| AAGUUUGCUAAUAGUCCCAAC [Fam3.1 aminoacylation ribozyme variant] | 0.643 | 0.629 | 0.585 | 0.505 | 1.04 | 0.639 |
| CUACUUAAAACAAUCGGUCGG [Fam1A.1 aminoacylation ribozyme variant] | 0.74 | 0.59 | 0.857 | 0.786 | 0.727 | 0.878 |
| AUUCACCUAGGCCAUCGCGUG [Fam2.2 aminoacylation ribozyme variant] | 4.15 | 3.85 | 6.31 | 4.45 | 31.6 | 4.69 |
| ACACUUCAAACAAUCGGUCUG [Fam1A.1 aminoacylation ribozyme variant] | 1.43 | 33.3 | 2.16 | 1.57 | 75.9 | 1.7 |
| UUUGACCUAGGUCAUCGGGUG [Fam2.2 aminoacylation ribozyme variant] | 4.23 | 6.51 | 5.93 | 4.5 | 26.6 | 4.3 |
| AUUCACCUAGGUAAUCUGGUG [Fam2.2 aminoacylation ribozyme variant] | 1.88 | 3.62 | 4.66 | 3.3 | 16.9 | 1.89 |
| CCUCACUUCAAGCAAUGGGUC [Fam1B.1 aminoacylation ribozyme variant] | 0.752 | 0.752 | 0.574 | 0.574 | 1.12 | 0.601 |
| CCACACUACAAGCAAUUGGUC [Fam1B.1 aminoacylation ribozyme variant] | 0.839 | 0.594 | 0.529 | 0.546 | 0.908 | 0.758 |

| Sequence | self-aminoacylation [1] | self-aminoacylation [2] | self-aminoacylation [3] | self-aminoacylation [4] | self-aminoacylation [5] | self-aminoacylation [6] |
| --- | --- | --- | --- | --- | --- | --- |
| ACACACUUCAAGCAGUCGGUC [Fam1B.1 aminoacylation ribozyme variant] | 1.09 | 1.01 | 1.18 | 1.35 | 1.46 | 1.36 |
| CUACUUCAGACAGUCGGUCUG [Fam1A.1 aminoacylation ribozyme variant] | 0.972 | 0.672 | 0.752 | 0.662 | 0.272 | 0.778 |
| CUACUUUAAACAAUCGGUCUA [Fam1A.1 aminoacylation ribozyme variant] | 0.781 | 0.713 | 0.763 | 1.09 | 1.15 | 0.832 |
| CUACUCCCAACAAUCGGUCUG [Fam1A.1 aminoacylation ribozyme variant] | 1.09 | 0.951 | 0.777 | 0.749 | 0.703 | 0.832 |
| AUUCACCGAGGUUAUCGGGUG [Fam2.2 aminoacylation ribozyme variant] | 5.85 | 7.66 | 10 | 7.16 | 87.3 | 4.28 |
| CCACACUUCAAGAAAUCGGUA [Fam1B.1 aminoacylation ribozyme variant] | 0.903 | 0.682 | 1.11 | 0.99 | 0.659 | 0.926 |
| CUACUACAAACAAUCGGUCUA [Fam1A.1 aminoacylation ribozyme variant] | 0.868 | 0.63 | 0.625 | 0.623 | 1.05 | 0.721 |
| AUUACCCUGGUCAUCCACUGA [Fam2.1 aminoacylation ribozyme variant] | 1.07 | 0.498 | 0.808 | 0.997 | 0.601 | 0.99 |
| CCACAGUUCAAGCAAUUGGUC [Fam1B.1 aminoacylation ribozyme variant] | 0.727 | 0.805 | 0.819 | 0.895 | 0.514 | 0.856 |
| CUACCUUAAACAAUCGGUCUG [Fam1A.1 aminoacylation ribozyme variant] | 0.797 | 0.987 | 0.913 | 0.994 | 0.804 | 0.796 |
| CUGCUUCAAACAAUCGGUCUC [Fam1A.1 aminoacylation ribozyme variant] | 1.38 | 46 | 2.47 | 1.64 | 107 | 1.29 |
| ACUACCCUGGUCAUCGAAUGA [Fam2.1 aminoacylation ribozyme variant] | 1.27 | 0.479 | 0.952 | 1.63 | 0.648 | 1.15 |
| AAGUUUGCUAAUAGACGCAAU [Fam3.1 aminoacylation ribozyme variant] | 1.05 | 0.827 | 0.806 | 0.911 | 1.74 | 1.11 |
| AAGUUUGCUUAUAGUCGCAAC [Fam3.1 aminoacylation ribozyme variant] | 0.895 | 0.697 | 0.84 | 0.941 | 1.04 | 0.973 |
| AUUCACCACGGUCAUCGGGUG [Fam2.2 aminoacylation ribozyme variant] | 6.13 | 10 | 12.3 | 9.37 | 68.7 | 5.71 |
| CCACACUUCAAGCGUUCGGUC [Fam1B.1 aminoacylation ribozyme variant] | 1.13 | 0.81 | 0.844 | 1.01 | 0.609 | 0.949 |
| CUACGUCAAUCAAUCGGUCUG [Fam1A.1 aminoacylation ribozyme variant] | 1.41 | 1.3 | 1.33 | 1.11 | 0.909 | 1.23 |
| AUUACCCUUGUCAUCGACUGA [Fam2.1 aminoacylation ribozyme variant] | 0.693 | 0.392 | 0.818 | 0.837 | 0.535 | 0.949 |
| AUACACCUGGGUCAUCGGGUG [Fam2.2 aminoacylation ribozyme variant] | 3.54 | 3.69 | 4.41 | 4.39 | 14.8 | 3.31 |
| CCACACUUCAAGAAAUUGGUC [Fam1B.1 aminoacylation ribozyme variant] | 0.516 | 0.449 | 0.698 | 0.592 | 0.563 | 0.66 |
| CUACUUCAAACAAUUUGUCUG [Fam1A.1 aminoacylation ribozyme variant] | 0.847 | 0.603 | 0.681 | 0.944 | 0.817 | 0.886 |
| AAGUUUGUUAAUAGCCGCAAG [Fam3.1 aminoacylation ribozyme variant] | 0.845 | 1.3 | 0.778 | 0.856 | 1.48 | 1.07 |
| AUUCACCUAAGUCAUAGGGUG [Fam2.2 aminoacylation ribozyme variant] | 1.21 | 1.3 | 1.92 | 1.87 | 5.88 | 1.32 |
| AUUCACCUAGGCCAUCGAGUG [Fam2.2 aminoacylation ribozyme variant] | 1.09 | 1.19 | 1.61 | 1.24 | 0.872 | 1.09 |
| AUUACCCUGGUCAUCGAUGGA [Fam2.1 aminoacylation ribozyme variant] | 1.12 | 1.19 | 0.926 | 1.08 | 1.14 | 1.03 |
